# Assay results: patent publication US8613909B2, “Cinnamic acid-based oligomers and uses thereof” (Virginia Commonwealth University, priority 2008, dated 2013)
# At least one structure is not confirmed: it was looked up by name or label, or the drawing left a doubt.
# Molecular target: thrombin (Homo sapiens, UniProt P00734)
# Test: Direct inhibition of thrombin, chromogenic substrate hydrolysis assay (absence of antithrombin)
# Type: biochemical
# Conditions: even at concentrations higher than 100 μM
structure (smiles),measurement,value
CO[C@H]1O[C@H](COS(=O)(=O)O)[C@@H](O[C@@H]2O[C@@H](C(=O)O)[C@@H](O[C@H]3O[C@H](COS(=O)(=O)O)[C@@H](O[C@@H]4O[C@H](C(=O)O)[C@@H](O[C@H]5O[C@H](COS(=O)(=O)O)[C@@H](O)[C@H](O)[C@H]5NS(=O)(=O)O)[C@H](O)[C@H]4O)[C@H](OS(=O)(=O)O)[C@H]3NS(=O)(=O)O)[C@H](O)[C@H]2OS(=O)(=O)O)[C@H](O)[C@H]1NS(=O)(=O)O [fondaparinux],direct inhibition of thrombin,no direct inhibition
